Percent effect of library compounds

Amino acid sequences for entries named in this document (tags omitted). Residues count along the entry.
UniProt Q4DA54, 1-478: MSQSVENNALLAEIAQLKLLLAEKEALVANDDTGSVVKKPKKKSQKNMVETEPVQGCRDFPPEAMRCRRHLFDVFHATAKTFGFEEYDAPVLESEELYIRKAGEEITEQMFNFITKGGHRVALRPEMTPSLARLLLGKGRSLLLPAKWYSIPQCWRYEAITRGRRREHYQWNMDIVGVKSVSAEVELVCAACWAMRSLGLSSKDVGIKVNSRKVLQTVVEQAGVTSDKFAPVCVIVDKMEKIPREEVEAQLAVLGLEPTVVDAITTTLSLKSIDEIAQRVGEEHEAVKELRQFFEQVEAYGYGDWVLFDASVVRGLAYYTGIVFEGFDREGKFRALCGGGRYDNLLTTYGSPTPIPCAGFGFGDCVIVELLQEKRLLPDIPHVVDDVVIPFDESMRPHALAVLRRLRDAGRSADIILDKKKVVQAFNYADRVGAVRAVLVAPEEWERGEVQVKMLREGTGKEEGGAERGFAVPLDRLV

From ChEMBL document CHEMBL3988442, “University of Dundee, Small-Polar-MMV Screening Library” (2021).

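Histidine-tRNA ligase, Trypanosoma cruzi CL Brener (UniProt Q4DA54). Enzyme assay of histidyl-tRNA synthetase; the read-out is not stated. Compounds at 30 µM. Direction is inferred from retests: higher values go with stronger inhibition. Of about 69,000 compounds tested this way, about 31 (0.045%) reached 50% or more in at least one test.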

Results are given as percent effect.
How 0% and 100% were set is not recorded. Most values in the screen are low, and negative values occur.
The compounds are a random part of those screened.

{"structure": "CC(C)CN1C(=O)C2(CCN(Cc3ccoc3)C2)c2ccccc21", "stereo": "configuration not stated", "percent effect": 7}
{"structure": "Cc1ccc(CN2CC[C@H]3C[C@@H](c4nc(C5CC5)cs4)O[C@@H]3C2)o1", "percent effect": 5.021}
{"structure": "c1csc(CN2Cc3nccn3CC(Cn3cncn3)C2)n1", "stereo": "configuration not stated", "percent effect": 1.653}
{"structure": "Cc1ccc(CN(C)Cc2nc3ccc(F)cc3[nH]2)cn1", "percent effect": 10.1}
{"structure": "CNC(=O)CN1CCOCC2(CCCN(Cc3ccoc3)C2)C1", "stereo": "configuration not stated", "percent effect": 0.4808}
{"structure": "O=C(NCCC1=CCCCC1)C1CCN(c2ccc3nncn3n2)CC1", "percent effect": 2.479}
{"structure": "Cc1ccc(C2(O)CCN(Cc3nc(C)n4ccccc34)CC2)nc1", "percent effect": 0.8403}
{"structure": "COCC(=O)NC[C@H]1C[C@@H]2CCN1C[C@@H]2c1cc(-c2cccs2)nn1C", "percent effect": -0.4975}
{"structure": "Cc1ccnc(SCC(=O)Nc2csc3nc(=O)c(C)nn23)n1", "percent effect": -0.9901}
{"structure": "CCCN1CCN(Cc2cccc(OCC(N)=O)c2)[C@H]2CS(=O)(=O)C[C@H]21", "percent effect": 8.293}
{"structure": "CCOCC(=O)N1CCC(c2nccn2Cc2cscn2)CC1", "percent effect": -4.523}
{"structure": "Cc1nc(C)n(CC2CCCN2c2ncnc3ccsc23)n1", "stereo": "configuration not stated", "percent effect": 3.152}
{"structure": "COc1ccc(-c2ccc(C(=O)N3CCC[C@@H]3CO)o2)cc1", "percent effect": -0.4292}
{"structure": "CC(C)(CNc1c(C#N)cnc2ccc(Cl)cc12)C(N)=O", "percent effect": 6.077}
{"structure": "Cc1ccc(NC(=O)CC2NC(N3CCc4ccccc43)=NC2=O)cc1", "stereo": "configuration not stated", "percent effect": 6.25}
{"structure": "CC1COCCN1Cc1nc(-c2cccc(C(F)(F)F)c2)no1", "stereo": "configuration not stated", "percent effect": 1.163}
{"structure": "Cc1nc(C)n(CC2CN(CCOc3cccc(F)c3)CCO2)n1", "stereo": "configuration not stated", "percent effect": 5.65}
{"structure": "O=C1OCCN1CC(=O)N1C[C@H]2CC[C@@H]1CN(C(=O)c1ccccn1)C2", "percent effect": -1.02}
{"structure": "N#CCCN(Cc1cccnc1)C(=O)Cc1ccc(-n2cnnn2)cc1", "percent effect": 3.448}
{"structure": "Cn1cnc2c1CCN(c1ccnc(-c3ccccc3)n1)C2", "percent effect": 17.46}
{"structure": "CC1CCN(C[C@H]2CN3CC[C@H]2C[C@@H]3CNC(=O)c2ccco2)CC1", "percent effect": 3.261}
{"structure": "CC[C@@]1(O)CCN(CCCOc2ccc(C(N)=O)cc2)C[C@H]1O", "percent effect": 9.901}
{"structure": "O=C(NC1CCCN(c2ccccc2Cl)C1)c1ccc(=O)[nH]n1", "stereo": "configuration not stated", "percent effect": 6}
{"structure": "CC(=O)NCC1CCC2(CCN(c3ncnc4oc(C)nc34)CC2)O1", "stereo": "configuration not stated", "percent effect": -0.8772}
{"structure": "COc1ccc(NC2CCCN(Cc3cnc(N(C)C)s3)C2)cc1OC", "stereo": "configuration not stated", "percent effect": 9.278}
{"structure": "Cn1ccc(NC(=O)CN2CCN(C3CCCC3)C(=O)C2)n1", "percent effect": 0}
{"structure": "COCCn1ccc(=O)c(OCC(=O)Nc2cccc(Cl)c2)c1C", "percent effect": -0.9901}
{"structure": "COc1c(CNC2CCOc3c(Cl)cccc32)c(C(C)C)nn1C", "stereo": "configuration not stated", "percent effect": 0}

For reference, 2 entries once more:

* Cc1ccc(CN2CC[C@H]3C[C@@H](c4nc(C5CC5)cs4)O[C@@H]3C2)o1 | 5.021%
* COc1c(CNC2CCOc3c(Cl)cccc32)c(C(C)C)nn1C (configuration not stated) | 0%